PubChem BioAssay AID1259254 – NCATS – 2017
This is a random part of about 59,000 reagents. Over the whole deposit, about 1,550 (2.6%) got an active call. 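G2 share is only a proxy for re-replication; each gene was hit by three separate siRNAs, and active genes were retested.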 Reagents against one gene are numbered here. Further read-outs or replicates are left out here. The record does not give: the amount of reagent.

Test: 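Gene knock-downs that lead to re-replication, shown by excess G2 DNA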 (primary screen)
System: human HCT116 colorectal cancer cells
Knock-down reagent: single siRNA against human genes
Time to read-out: 3 days
Measured: 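Imaged Hoechst DNA stain sorts each cell into a cycle phase by DNA amount; per plate, G2 fraction set to 0% for non-targeting and 100% for GMNN siRNA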
Reading the numbers: G2 robust z-score and G2 cells, % of GMNN control: higher = more G2 cells, more excess DNA replication
Rule for the call: 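Active siRNAs have a G2 robust z of 5 or more median absolute deviations over the median, which in these data means about 38% or higher of GMNN control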

With DPYSL2 (dihydropyrimidinase like 2) #1, how do the results read?
G2 robust z-score: 0.523; G2 cells, % of GMNN control: 6.65; Call: inactive

How did the screen score DPYSL2 (dihydropyrimidinase like 2) #2?
G2 robust z-score: -0.0813; G2 cells, % of GMNN control: 2.4; Call: inactive

For DPYSL2 (dihydropyrimidinase like 2) #3, how do the results read?
G2 robust z-score: -0.00344; G2 cells, % of GMNN control: 2.94; Call: inactive

For PRM2 (protamine 2) #1, what was measured?
G2 robust z-score: -0.585; G2 cells, % of GMNN control: -1.15; Call: inactive

Which result is listed for PRM2 (protamine 2) #2?
G2 robust z-score: -0.702; G2 cells, % of GMNN control: -1.97; Call: inactive

For PRM2 (protamine 2) #3, how do the results read?
G2 robust z-score: -0.417; G2 cells, % of GMNN control: 0.0313; Call: inactive

For BRF2 (BRF2 general transcription factor IIIB subunit) #1, how do the results read?
G2 robust z-score: -0.367; G2 cells, % of GMNN control: 0.387; Call: inactive

For BRF2 (BRF2 general transcription factor IIIB subunit) #2, what does the deposit list?
G2 robust z-score: -0.377; G2 cells, % of GMNN control: 0.318; Call: inactive

With BRF2 (BRF2 general transcription factor IIIB subunit) #3, how do the results read?
G2 robust z-score: -0.204; G2 cells, % of GMNN control: 1.53; Call: inactive

What did the screen give for ANXA13 (annexin A13) #1?
G2 robust z-score: 2.93; G2 cells, % of GMNN control: 23.6; Call: inactive

What did the screen give for ANXA13 (annexin A13) #2?
G2 robust z-score: 0.00235; G2 cells, % of GMNN control: 2.98; Call: inactive

What is on record for ANXA13 (annexin A13) #3?
G2 robust z-score: 1.1; G2 cells, % of GMNN control: 10.7; Call: inactive

With NMI (N-myc and STAT interactor) #1, what does the deposit list?
G2 robust z-score: -0.691; G2 cells, % of GMNN control: -1.89; Call: inactive

What did the screen give for NMI (N-myc and STAT interactor) #2?
G2 robust z-score: -0.144; G2 cells, % of GMNN control: 1.96; Call: inactive

With NMI (N-myc and STAT interactor) #3, what does the deposit list?
G2 robust z-score: 0.861; G2 cells, % of GMNN control: 9.02; Call: inactive

Which result is listed for WASF3 (WASP family member 3) #1?
G2 robust z-score: 2.08; G2 cells, % of GMNN control: 17.6; Call: inactive

How did the screen score WASF3 (WASP family member 3) #2?
G2 robust z-score: 0.24; G2 cells, % of GMNN control: 4.65; Call: inactive

Which result is listed for WASF3 (WASP family member 3) #3?
G2 robust z-score: 0.233; G2 cells, % of GMNN control: 4.61; Call: inactive

With PDK2 (pyruvate dehydrogenase kinase 2) #1, how do the results read?
G2 robust z-score: -0.197; G2 cells, % of GMNN control: 1.58; Call: inactive

With PDK2 (pyruvate dehydrogenase kinase 2) #2, how do the results read?
G2 robust z-score: 0.912; G2 cells, % of GMNN control: 9.38; Call: inactive

How did the screen score PDK2 (pyruvate dehydrogenase kinase 2) #3?
G2 robust z-score: -0.766; G2 cells, % of GMNN control: -2.42; Call: inactive

What is on record for ZMYM1 (zinc finger MYM-type containing 1) #1?
G2 robust z-score: 0.415; G2 cells, % of GMNN control: 5.89; Call: inactive

What did the screen give for ZMYM1 (zinc finger MYM-type containing 1) #2?
G2 robust z-score: 0.96; G2 cells, % of GMNN control: 9.72; Call: inactive

What is on record for ZMYM1 (zinc finger MYM-type containing 1) #3?
G2 robust z-score: -0.966; G2 cells, % of GMNN control: -3.83; Call: inactive

Laid out differently: results already given
gene symbol | reagent | G2 robust z-score | G2 cells, % of GMNN control | Call
ZMYM1 (zinc finger MYM-type containing 1) | 1 | 0.415 | 5.89 | inactive
ZMYM1 (zinc finger MYM-type containing 1) | 2 | 0.96 | 9.72 | inactive
ZMYM1 (zinc finger MYM-type containing 1) | 3 | -0.966 | -3.83 | inactive
